Laboratory results from US20230272047A1.
These are yes or no findings as the source states them, for the method shown. Tags and fused reporters may be left off the sequences shown.

What was measured:
CTLA4 = test: yeast surface display, flow cytometry (PE signal)
IL17 = test: yeast surface display, flow cytometry (PE signal)

B1: 2DS25 displayed on the yeast surface as Myc tagged Aga2p fusion protein (designed binder, not shown: large carriers; small tags and cut ends)
chain: DEEEIQKAIEELLRKGVSEEEAAIIIAQRFNVAVVVVVQDERQAKHISEYIRRYIPEADVILFANIVVIKVETEELRKRVWEAAQKAY
For B1, the binding (CTLA4) was “no binding” and the binding (IL17) was “no binding”.
